Laboratory results from PMC7403338.
Results are given in words; binding and its absence hold for the method and conditions named. Binding seen in cells or lysates may run through a third protein. A yes stands for co-enrichment or nearness to the bait. Other partners may have been found. For some assays here: A no says only that the protein was not detected with the bait.

Amino acid sequences for entries named in this document (tags omitted). A change or cut given only in a name is not applied to a line headed by its entry.
UniProt A4IB95: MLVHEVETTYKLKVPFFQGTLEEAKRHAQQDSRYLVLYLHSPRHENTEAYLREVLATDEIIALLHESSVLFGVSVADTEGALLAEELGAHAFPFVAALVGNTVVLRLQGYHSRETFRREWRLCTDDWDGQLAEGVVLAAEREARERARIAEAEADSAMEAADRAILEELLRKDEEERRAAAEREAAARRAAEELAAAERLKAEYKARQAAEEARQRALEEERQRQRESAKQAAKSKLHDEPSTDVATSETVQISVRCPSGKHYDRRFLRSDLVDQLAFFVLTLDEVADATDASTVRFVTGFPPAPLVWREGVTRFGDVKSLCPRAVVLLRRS
UniProt A4ICA6: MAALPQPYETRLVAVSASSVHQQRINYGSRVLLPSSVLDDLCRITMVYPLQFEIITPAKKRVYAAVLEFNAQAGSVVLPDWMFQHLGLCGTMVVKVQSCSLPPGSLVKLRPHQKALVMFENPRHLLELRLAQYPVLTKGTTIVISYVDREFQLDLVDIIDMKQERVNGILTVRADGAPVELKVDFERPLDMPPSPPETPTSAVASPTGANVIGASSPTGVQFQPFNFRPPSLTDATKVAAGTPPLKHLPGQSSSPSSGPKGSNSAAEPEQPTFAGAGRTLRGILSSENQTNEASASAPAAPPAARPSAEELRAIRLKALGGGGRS
UniProt A4HU22: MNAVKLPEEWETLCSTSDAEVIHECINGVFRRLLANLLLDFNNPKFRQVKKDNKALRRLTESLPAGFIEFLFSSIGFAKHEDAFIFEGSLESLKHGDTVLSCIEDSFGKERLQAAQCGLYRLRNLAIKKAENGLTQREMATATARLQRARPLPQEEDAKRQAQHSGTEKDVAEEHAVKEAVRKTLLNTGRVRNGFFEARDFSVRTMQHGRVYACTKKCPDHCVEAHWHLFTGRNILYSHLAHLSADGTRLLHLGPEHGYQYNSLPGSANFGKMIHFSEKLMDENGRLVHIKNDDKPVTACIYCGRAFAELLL
UniProt A4HZR0: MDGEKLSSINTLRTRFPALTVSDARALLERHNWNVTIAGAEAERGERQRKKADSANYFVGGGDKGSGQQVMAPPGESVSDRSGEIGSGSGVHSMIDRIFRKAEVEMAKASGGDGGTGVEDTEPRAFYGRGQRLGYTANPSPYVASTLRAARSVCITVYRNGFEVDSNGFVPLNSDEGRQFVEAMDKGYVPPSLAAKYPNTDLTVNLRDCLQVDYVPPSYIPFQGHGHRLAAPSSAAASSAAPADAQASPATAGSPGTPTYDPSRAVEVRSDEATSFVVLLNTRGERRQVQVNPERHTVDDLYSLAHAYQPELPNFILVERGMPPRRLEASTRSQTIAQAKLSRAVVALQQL
UniProt A4I7K1: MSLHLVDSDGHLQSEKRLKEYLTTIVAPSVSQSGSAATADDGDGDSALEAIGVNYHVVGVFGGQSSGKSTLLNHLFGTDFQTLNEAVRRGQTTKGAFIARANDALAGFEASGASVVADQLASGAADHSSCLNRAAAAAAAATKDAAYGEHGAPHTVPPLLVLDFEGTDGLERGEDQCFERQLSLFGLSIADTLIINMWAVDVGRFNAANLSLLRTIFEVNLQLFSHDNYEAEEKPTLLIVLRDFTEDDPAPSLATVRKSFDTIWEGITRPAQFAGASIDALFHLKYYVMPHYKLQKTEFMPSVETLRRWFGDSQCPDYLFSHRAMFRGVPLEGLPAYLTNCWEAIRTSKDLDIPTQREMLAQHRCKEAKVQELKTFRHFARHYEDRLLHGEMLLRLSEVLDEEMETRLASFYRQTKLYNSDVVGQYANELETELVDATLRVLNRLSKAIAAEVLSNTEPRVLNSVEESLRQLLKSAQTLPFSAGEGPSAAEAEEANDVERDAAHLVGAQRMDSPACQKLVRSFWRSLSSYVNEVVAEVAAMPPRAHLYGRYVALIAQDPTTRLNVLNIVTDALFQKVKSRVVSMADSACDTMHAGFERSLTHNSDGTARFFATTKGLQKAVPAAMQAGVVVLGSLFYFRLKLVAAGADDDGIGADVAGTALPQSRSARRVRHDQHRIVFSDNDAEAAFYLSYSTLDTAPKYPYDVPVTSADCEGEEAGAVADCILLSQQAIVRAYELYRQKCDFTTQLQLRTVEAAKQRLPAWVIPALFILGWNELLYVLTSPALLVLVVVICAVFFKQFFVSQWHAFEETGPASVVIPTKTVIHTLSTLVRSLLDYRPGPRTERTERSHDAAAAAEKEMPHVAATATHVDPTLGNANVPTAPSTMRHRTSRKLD
UniProt A4I1S9: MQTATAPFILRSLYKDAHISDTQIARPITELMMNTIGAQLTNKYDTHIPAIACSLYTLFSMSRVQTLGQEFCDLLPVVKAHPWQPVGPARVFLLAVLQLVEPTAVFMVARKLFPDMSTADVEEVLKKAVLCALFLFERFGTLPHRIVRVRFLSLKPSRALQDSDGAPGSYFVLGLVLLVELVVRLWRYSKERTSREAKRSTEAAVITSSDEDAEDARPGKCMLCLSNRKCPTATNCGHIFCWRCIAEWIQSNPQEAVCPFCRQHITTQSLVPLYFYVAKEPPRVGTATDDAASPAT
UniProt A4HTA0: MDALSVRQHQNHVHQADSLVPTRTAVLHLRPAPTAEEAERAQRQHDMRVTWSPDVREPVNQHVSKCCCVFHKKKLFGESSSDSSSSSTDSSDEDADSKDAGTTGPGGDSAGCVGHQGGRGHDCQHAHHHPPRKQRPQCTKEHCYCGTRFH
UniProt A4I3K7: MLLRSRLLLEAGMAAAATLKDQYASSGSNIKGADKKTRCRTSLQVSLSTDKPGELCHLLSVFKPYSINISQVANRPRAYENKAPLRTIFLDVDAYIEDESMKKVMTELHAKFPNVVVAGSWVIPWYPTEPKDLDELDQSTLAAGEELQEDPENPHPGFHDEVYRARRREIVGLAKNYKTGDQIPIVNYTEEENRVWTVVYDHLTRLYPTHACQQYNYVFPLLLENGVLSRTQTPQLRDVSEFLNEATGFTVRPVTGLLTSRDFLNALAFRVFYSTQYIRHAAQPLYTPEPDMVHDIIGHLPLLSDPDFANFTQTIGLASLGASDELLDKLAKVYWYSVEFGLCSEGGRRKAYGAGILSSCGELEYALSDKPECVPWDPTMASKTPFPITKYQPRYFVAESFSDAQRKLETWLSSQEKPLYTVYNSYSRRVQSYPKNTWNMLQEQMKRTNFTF
UniProt A4HXA8: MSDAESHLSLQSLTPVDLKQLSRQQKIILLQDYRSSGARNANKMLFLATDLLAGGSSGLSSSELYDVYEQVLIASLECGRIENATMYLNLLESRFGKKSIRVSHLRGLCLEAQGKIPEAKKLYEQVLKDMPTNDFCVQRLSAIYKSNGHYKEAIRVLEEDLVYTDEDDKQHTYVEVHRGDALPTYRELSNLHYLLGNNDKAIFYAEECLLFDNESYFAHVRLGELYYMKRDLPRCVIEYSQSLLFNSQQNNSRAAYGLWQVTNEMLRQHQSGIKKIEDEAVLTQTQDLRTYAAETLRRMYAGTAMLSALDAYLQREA
UniProt A4IC22: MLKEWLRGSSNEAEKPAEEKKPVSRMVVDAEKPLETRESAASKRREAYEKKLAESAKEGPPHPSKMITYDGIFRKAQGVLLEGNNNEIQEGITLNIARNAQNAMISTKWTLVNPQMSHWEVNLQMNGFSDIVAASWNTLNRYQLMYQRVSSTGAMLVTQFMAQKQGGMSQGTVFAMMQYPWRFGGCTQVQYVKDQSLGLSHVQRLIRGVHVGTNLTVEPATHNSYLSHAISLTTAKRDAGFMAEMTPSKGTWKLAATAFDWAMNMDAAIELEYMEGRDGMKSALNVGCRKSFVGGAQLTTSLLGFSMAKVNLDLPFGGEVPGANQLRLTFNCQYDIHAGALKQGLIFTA
UniProt A4IAK7: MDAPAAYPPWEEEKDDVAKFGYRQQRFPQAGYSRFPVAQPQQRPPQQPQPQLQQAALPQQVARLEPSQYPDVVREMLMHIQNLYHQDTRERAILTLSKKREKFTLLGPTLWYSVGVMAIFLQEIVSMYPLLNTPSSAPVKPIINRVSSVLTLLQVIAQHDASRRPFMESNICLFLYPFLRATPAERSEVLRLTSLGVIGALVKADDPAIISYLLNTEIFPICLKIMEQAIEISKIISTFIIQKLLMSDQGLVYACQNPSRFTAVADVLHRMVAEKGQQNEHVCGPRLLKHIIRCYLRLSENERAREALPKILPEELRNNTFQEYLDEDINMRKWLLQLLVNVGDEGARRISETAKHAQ
UniProt A4I9W4: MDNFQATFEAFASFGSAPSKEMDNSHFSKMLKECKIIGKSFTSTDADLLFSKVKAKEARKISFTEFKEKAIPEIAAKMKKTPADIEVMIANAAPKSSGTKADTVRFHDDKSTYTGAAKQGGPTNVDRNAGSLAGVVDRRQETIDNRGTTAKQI
UniProt A4IBQ8: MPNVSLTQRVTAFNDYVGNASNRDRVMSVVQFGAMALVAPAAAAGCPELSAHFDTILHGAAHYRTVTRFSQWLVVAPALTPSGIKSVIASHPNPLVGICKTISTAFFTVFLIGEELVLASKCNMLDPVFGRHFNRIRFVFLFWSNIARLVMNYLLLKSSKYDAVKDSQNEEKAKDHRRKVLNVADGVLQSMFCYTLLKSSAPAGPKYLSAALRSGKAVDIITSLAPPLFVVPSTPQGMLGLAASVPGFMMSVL
UniProt A4HSM6: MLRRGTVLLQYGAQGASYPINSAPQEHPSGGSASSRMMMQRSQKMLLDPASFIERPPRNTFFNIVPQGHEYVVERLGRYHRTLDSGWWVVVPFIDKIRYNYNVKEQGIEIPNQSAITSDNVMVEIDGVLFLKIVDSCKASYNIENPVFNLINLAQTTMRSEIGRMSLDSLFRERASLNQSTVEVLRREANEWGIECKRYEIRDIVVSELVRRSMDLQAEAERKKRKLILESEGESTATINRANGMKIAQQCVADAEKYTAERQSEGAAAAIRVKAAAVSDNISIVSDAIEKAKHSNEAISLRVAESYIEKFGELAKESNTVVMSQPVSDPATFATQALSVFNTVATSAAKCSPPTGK
UniProt Q9N9V5: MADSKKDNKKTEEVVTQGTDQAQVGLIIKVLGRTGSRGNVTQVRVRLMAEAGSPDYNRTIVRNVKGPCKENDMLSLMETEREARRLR
UniProt A4HSP2: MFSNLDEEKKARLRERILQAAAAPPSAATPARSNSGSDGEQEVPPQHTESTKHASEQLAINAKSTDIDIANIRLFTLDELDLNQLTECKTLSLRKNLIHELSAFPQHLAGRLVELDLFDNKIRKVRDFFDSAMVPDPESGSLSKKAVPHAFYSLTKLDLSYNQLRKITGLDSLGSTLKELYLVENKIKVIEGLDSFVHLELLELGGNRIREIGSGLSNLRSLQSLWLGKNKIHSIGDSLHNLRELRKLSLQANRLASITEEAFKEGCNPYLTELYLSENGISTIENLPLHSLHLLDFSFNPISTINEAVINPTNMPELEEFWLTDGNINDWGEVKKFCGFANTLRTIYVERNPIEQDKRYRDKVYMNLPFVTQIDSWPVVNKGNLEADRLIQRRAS
UniProt A4I4A3: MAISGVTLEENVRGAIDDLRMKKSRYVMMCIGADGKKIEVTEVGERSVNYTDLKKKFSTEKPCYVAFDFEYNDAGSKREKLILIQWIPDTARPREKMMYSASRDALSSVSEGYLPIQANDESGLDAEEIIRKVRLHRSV
UniProt A4HSN6: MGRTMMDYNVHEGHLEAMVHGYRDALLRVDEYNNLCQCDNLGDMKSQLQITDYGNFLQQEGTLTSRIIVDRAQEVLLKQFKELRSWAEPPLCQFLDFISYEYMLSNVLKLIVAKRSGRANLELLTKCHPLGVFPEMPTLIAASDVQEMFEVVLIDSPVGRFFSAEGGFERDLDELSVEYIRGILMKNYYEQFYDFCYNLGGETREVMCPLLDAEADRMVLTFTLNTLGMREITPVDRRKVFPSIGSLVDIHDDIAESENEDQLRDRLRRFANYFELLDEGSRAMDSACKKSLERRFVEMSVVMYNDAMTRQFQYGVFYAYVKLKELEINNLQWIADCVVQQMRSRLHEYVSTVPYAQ
UniProt A4HXS0: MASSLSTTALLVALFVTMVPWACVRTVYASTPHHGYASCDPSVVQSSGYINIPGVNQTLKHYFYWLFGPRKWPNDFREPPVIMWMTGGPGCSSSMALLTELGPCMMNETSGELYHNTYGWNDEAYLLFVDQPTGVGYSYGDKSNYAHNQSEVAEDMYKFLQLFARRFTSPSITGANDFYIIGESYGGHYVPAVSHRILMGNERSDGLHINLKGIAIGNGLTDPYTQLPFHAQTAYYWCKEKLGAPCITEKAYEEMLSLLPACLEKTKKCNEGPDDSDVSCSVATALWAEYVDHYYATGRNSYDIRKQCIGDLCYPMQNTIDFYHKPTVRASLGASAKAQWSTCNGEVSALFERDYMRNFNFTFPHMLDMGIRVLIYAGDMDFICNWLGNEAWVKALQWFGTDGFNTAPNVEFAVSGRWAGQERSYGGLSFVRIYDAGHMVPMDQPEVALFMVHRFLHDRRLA

B1: hypothetical protein-conserved (alkaline phosphatase like superfamily, 1 TM) LinJ.12.0550 (protein, UniProt E9AGE7 1-518)
chain: MFGESYVESGAPNAARGGGHYTTTRIESPALRAAGASSSGANGQQQHLRSVKEIIKTLDEEHEISGPKGGCCSRIFVPFLTLAMIIVIFVAIVYTNGTGSDVEASPRVAMIVLEGFSGTVFHALMQSGVHMPNIAHMLSSQKGVWAECATSSQSSCARAVVVENDTSGEVYVSAAAAMTSLFSGVSPREHQVYNGSLESMSMYANTSKMNPSIAKRVKDAGMKVSVVGTSHAINSLSIAFGSCSQPGVLDMECAASREELLRASIDEYSSSVQLDCLASSSCNMDTRKMNSPTDPKQCSSGQAEAQFTRHLNSIFGGLAYSTQTQEAAVQNTAADNLDDSLFVFHFDSLAVRAASTYLPGFQYNVSSKEYVAQVYLLDALVGQVISYVRDRARSQKENWLILGVSDHGGNDKPHAIPNPVSTSENTIAFFMATYTDNLKRFVTLAPLQRPVTQLDVLPTVLTWLNVAPFDAETSAVIAGKNTTAASPAVEARVMERRHFEGLVQGICSSGTSLKDCAV

Key:
Experiment in all cases: affinity purification with mass spectrometry; lysates of L. infantum promastigotes expressing C- or N-terminally HA-tagged Lip47, LiUFD1, LiFAF2 or LiPUB1 on anti-HA magnetic beads; LC-MS/MS; two independent experiments for each cofactor, filtered against five unrelated HA-tagged proteins
[1] = target: HA-tagged LiFAF2 (Leishmania infantum) (UniProt A4IB95)
[2] = target: HA-tagged LiUFD1 (Leishmania infantum) (UniProt A4ICA6)
[3] = target: HA-tagged LiPUB1 (Leishmania infantum) (UniProt A4HU22)
[4] = target: HA-tagged Lip47 (Leishmania infantum) (UniProt A4HZR0)

binding [1] | binding [2] | binding [3] | binding [4] | Molecule
binds | binds |  |  | ubiquitin associated UBA/TS-N domain protein (LinJ.24.1650) (from UniProt E9AH65)
binds |  | binds | binds | root hair defective 3 GTP-binding protein (RHD3), putative (LinJ.32.0380) (from UniProt A4I7K1)
binds |  |  |  | PEX10, PEX2 / PEX12 amino terminal region/ RING/U-box containing protein (LinJ.25.2400) (from UniProt A4I1S9)
 |  |  | binds | protein phosphatase inhibitor (Ypi1, PP1 Protein phosphatase inhibitor) (LinJ.07.0840) (from UniProt A4HTA0)
 | binds |  |  | phenylalanine-4-hydroxylase (signal peptide) (LinJ.28.1390) (from UniProt A4I3K7) (enzyme)
binds |  |  |  | tetratricopeptide repeat, putative (ER membrane protein complex subunit 2) (LinJ.17.0230) (from UniProt A4HXA8)
binds | binds | binds |  | mitochondrial import receptor subunit ATOM40, putative (LinJ.35.4920) (from UniProt A4IC22)
binds |  |  |  | cell differentiation protein-like protein (Rcd1 homolog) (LinJ.34.4180) (from UniProt A4IAK7)
binds |  | binds | binds | TPPP/p25-alpha, putative (Tubulin Polymerization-Promoting Protein) (LinJ.34.1620) (from UniProt A4I9W4)
 | binds |  |  | peroxin 12 (PEX12), putative (RING/U-box) (LinJ.19.1240) (from UniProt A4HYE3)
binds |  |  |  | peroxisomal biogenesis factor 11 (PEX11), putative (LinJ.35.3740) (from UniProt A4IBQ8)
binds | binds |  |  | stomatin-like protein 2 (SLP-2, mitochondrial) (LinJ.05.1040) (from UniProt A4HSM6)
binds |  | binds |  | 40S ribosomal protein S33, putative (LinJ.26.1610) (from UniProt Q9N9V5)
 |  |  | binds | protein phosphatase type 1 (PP1) regulator-like protein (SDS22) (LinJ.05.1200) (from UniProt A4HSP2)
binds |  |  | binds | ADF (actin depolymerization factor)/Cofilin (LinJ.29.0520) (from UniProt A4I4A3)
 |  | binds | no binding | LiUFD1, endogenous (from UniProt A4ICA6)
binds | binds |  | binds | V-type proton ATPase subunit D, putative (LinJ.05.1140) (from UniProt A4HSN6)
 | no binding |  |  | Lip47, endogenous (from UniProt A4HZR0)
 | binds |  |  | serine carboxypeptidase (CBP1)-putative (mitochondrial, 1 TM) (LinJ.18.0450) (from UniProt A4HXS0) (enzyme)
 | binds |  |  | LiFAF2, endogenous (from UniProt A4IB95)
 |  |  | binds | LiPUB1, endogenous (from UniProt A4HU22)
 | binds |  |  | B1
